No constants are given. Whether binding was seen depends on the method and setting. In cells and extracts the contact can be indirect. Some results given as binding are weak or reduced against the parent protein; the word gives no strength. Sequences can lack the tags named with a protein.
Assays:
[1] = biological target: T1, in vitro-translated ^35S-labelled hD52 (pTL1hD52) (human) (UniProt P55327); assay: GST pull-down, ^35S-labelled in vitro-translated protein, autoradiography
T1 sequence (chain, ^35S-Methionine labelled): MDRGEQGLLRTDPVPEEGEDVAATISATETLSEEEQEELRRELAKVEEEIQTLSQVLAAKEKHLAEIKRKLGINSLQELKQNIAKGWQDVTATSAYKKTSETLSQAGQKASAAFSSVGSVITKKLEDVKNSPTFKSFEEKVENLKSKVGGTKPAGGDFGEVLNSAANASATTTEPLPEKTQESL

The chains behind the UniProt entries cited, without tags or fusion partners. Where a name states a change or a piece, a line headed by the entry shows the natural chain unless it says otherwise.
UniProt P55327: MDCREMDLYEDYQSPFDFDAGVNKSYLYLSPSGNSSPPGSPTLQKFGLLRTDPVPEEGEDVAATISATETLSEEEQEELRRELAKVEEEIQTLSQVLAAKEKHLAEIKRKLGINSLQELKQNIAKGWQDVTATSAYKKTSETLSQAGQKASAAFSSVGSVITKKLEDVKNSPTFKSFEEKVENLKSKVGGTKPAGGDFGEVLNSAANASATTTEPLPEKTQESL
UniProt O43399: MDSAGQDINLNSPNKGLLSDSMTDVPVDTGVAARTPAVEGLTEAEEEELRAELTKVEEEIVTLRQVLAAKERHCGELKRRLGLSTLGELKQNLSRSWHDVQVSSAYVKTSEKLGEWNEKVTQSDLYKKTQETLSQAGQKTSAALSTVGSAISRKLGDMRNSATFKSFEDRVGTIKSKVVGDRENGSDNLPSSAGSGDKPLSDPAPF

[2] = biological target: in vitro-translated ^35S-labelled hD54-ins2 (pTL1hD54-ins2) (human) (UniProt O43399); assay: as above

B1: Recombinant GST-mD52 (N-terminally GST-tagged full-length mD52 with C-terminal 6-histidine tag, pGEX3XmD52-6His) (protein, not shown: a dimerising Fc or GST)
chain: MDRGEQGLLKTEPVAEEGEDAVTMLSAPEALTEEEQEELRRELTKVEEEIQTLSQVLAAKEKHLAELKRKLGISSLQEFKQNIAKGWQDVTATNAYKKTSETLSQAGQKASAAFSSVGSVITKKLEDVKNSPTFKSFEEKVENLKSKVGGAKPAGGDFGEVLNSTANATSTMTTEPPPEQMTESPHHHHHH
- binding [1]: binds
- binding [2]: binds
